Reference: PubChem BioAssay (EPA / NIEHS)
Where “and” joins values, the source holds several entries; their conditions need not be identical. Identical values can stand only once. The inconclusive results got no clear call from the source; some entries with a clear call stand among them for comparison. A potency beside an inconclusive call is a rough fit, not a confirmed value. Calls of active or inactive are those of the source. Rule for the calls: active = hit-call score of the fitted dose curve at least 0.9, where 1 is the maximum; inconclusive = response in the unintended direction; inactive = score below 0.9.

test system: frog Androgen Receptor (AR), gene 399456; test: ATG_frAR_XSP1: Attagene TRANS-FACTORIAL Multi-Species (XSP1) HepG2 Assay for frog Androgen Receptor (AR) (AID 2283770)
Experimental: ATG_XSP1_multi-species_TRANS is a cell-based, multiplexed assay created by modifying the existing Attagene TRANS-FACTORIAL system to include a panel of nuclear receptors from some or all the following species: human (Homo sapiens), mouse (Mus musculus), frog (Xenopus laevis), zebrafish (Danio rerio), chicken (Gallus gallus), and turtle (Chrysemys picta). The ECOTOX-FACTORIAL format uses HepG2, a human liver cell line, with measurements taken at 24 hours after chemical dosing in a 24-well plate. Xsp1 included 3 nM 6-alpha-fluorotestosterone to partially stimulate the androgen receptor.ATG_frAR_XSP1 is one of 29 assay components measured or calculated from the ATG_XSP1_multi-species_TRANS assay. It is designed to make measurements of mRNA induction, a form of inducible reporter, as detected with fluorescence intensity signals by Reverse transcription polymerase chain reaction (RT-PCR) and Capillary electrophoresis technology.The assay endpoint ATG_frAR_XSP1 was analyzed in the positive analysis fitting direction relative to DMSO as the negative control and baseline of activity. Using a type of inducible reporter, measures of mRNA for gain-of-signal activity can be used to understand the reporter gene at the transcription factor-level as they relate to the gene AR. Furthermore, this assay endpoint can be referred to as a primary readout, because this assay has produced multiple assay endpoints where this one serves a reporter gene function. To generalize the intended target to other relatable targets, this assay endpoint is annotated to the nuclear receptor intended target family, where the subfamily is steroidal.
Human liver HepG2 cells are transiently transfected with multiple reporter transcription units (MRTUs) in 6-well plates using FuGene 6 reagent (Roche; 3 ml FuGene/1 mg DNA). The MRTU constructs are regulated by a cis-regulating element (promoter). […] A major difference between the CIS and TRANS system is that in CIS activities of endogenous TFs are measured, whereas the TRANS assay evaluates changes in activities of exogenous, chimeric NR-Gal4 proteins. […] At the end of 24 hour incubation, total RNA was isolated using TriZol reagent (Invitrogen). The isolated RNA is then reverse-transcribed using oligo(dT) primer and Mo-MLV reverse transcriptase (Invitrogen) with DNAse I (Ambion) treatment for 30 min. The one-tenth of the produced cDNA was amplified by PCR using Taq DNA polymerase (Invitrogen) and two reporter sequence-specific primers. The PCR products were fluorescently labeled by primer extension with 6-arboxyfluorescein (6-FAM) 5'-labeled reporter sequence-specific primer (2 min at 95 C, 20 s at 68 C and 10 min at 72 C) and these products were digested with 5U of HpaI (New England Biolabs) for 2h at 37 C. The fragments were purified using Qiaquick PCR columns (Qiagen), analyzed on an ABI 3130xL genetic analyzer (Applied Biosystems) with peak positions identified by using a set of X-rhodamine (ROX)-labeled MapMarker1000 molecular weight standards (BioVentures). The raw capillary electrophoresis data was processed using Attagraph software (Attagene).

SMILES	AC50
C#C[C@]1(O)CC[C@H]2[C@@H]3CCC4=CC(=O)CC[C@@H]4[C@H]3CC[C@@]21CC	inconclusive: 8.55 nM and inconclusive: 2.3 nM
Cc1c2ccccc2c(C)c2c1ccc1ccccc12	inconclusive: 11.9 µM
CC(=O)S[C@@H]1CC2=CC(=O)CC[C@]2(C)[C@H]2CC[C@@]3(C)[C@@H](CC[C@@]34CCC(=O)O4)[C@H]12	inconclusive: 0.0475 µM
CC[C@H](c1ccc(O)cc1)[C@@H](CC)c1ccc(O)cc1	inconclusive: 0.1 µM
O=P(OC(CCl)CCl)(OC(CCl)CCl)OC(CCl)CCl	inconclusive: 1.98 µM
CCN(CC)CCOc1ccc(C(=C(Cl)c2ccccc2)c2ccccc2)cc1	inconclusive: 9.35 µM
CC1(C)C(C=C(Cl)Cl)C1C(=O)OCc1cccc(Oc2ccccc2)c1 (stereo not given)	inconclusive: 29.7 µM
CC(C)(c1ccc(O)cc1)c1ccc(O)cc1	inconclusive: 9.55 µM
O=C(c1ccc(O)cc1O)c1ccc(O)cc1O	active: 2.75 µM
CC(C)CCCCCCc1ccc(O)cc1	inconclusive: 4.12 µM
CC(C)C(=O)Nc1ccc([N+](=O)[O-])c(C(F)(F)F)c1	inconclusive: 10.9 µM
C(=C(c1ccccc1)c1ccccc1)c1ccccc1	inconclusive: 1.87 µM
O=C(c1ccccc1)c1ccc(O)cc1O	active: 3.28 µM
C[C@]12CC[C@H]3C(=CCc4cc(O)ccc43)[C@@H]1CCC2=O	inconclusive: 0.125 µM
CCC(C)(C)C1CCC(O)CC1 (stereo not given)	inconclusive: 6.09 µM
